SMILES strings stand for the structures. Only a part is listed here, and it is no random draw. Results filed as inconclusive are left out. Activity calls are given as the source filed them. The call rests on the fitted dose curve; in most records, active means well fitted cell-killing curve with a large enough effect; inconclusive means small, poorly fitted or top-dose-only effect, or effect the other way; inactive means flat fitted curve, though single readings scatter.
Potency means the concentration at half of the fitted maximal effect.

The assay is described as follows: qHTS for induction of synthetic lethality in tumor cells producing 2HG: qHTS for the HT-1080-NT fibrosarcoma cell line. Further: nearly all actives have a fitted effect of over 55% in size. The conditions noted are these: HT-1080-NT fibrosarcoma viability, CellTiter-Glo ATP luminescence, 48 h. From the text: Unbiased genomic sequencing for 22 glioma genomes found recurrent mutation of IDH1 on chromosome 2q33, a gene encoding the cytosolic isoform of IDH1 associated with the tricarboxylic acid cycle (TCA) that catalyzes the oxidative decarboxylation of isocitrate, yielding alpha-ketoglutarate and CO2 via NADP+ to NADPH conversion. Subsequent studies confirmed the recurrent IDH mutations in up to 70% of secondary gliomas and in 10% of AML cases. In addition, the somatic mutation of cancer-associated IDH1 is a point mutation resulting in various amino-acid substituents at Arginine132 (IDH1 R132), a key residue found in the enzyme's active site that when mutated, results in the loss-of-function in metabolizing isocitrate but confers a gain-of-function to produce the oncometabolite 2-hydroxyglutarate (2HG). This in effect defines IDH1 as an oncogene and provides an extraordinary opportunity to discover chemical probes against mutant IDH1 that may translate into much needed new therapies for glioma and AML patients.
This assay aims to perform a synthetic lethal screen for chemical probes specific for 2HG-producing tumor cells using matched paired cell lines (1) HT-1080-NT fibrosarcoma cell line that overproduces 2HG and (2) HT-1080-IDH1KD cell line which has IDH1 expression knocked-down. Desirable compounds are toxic to the NT fibrosarcoma cells but not to the IDH1KD cell line. […]
Suspensions of trypsinized HT-1080-NT cells were dispensed into white, tissue culture-treated, solid 1536-well plates at 5uL/well (750 cells/well final concentration) in RPMI medium supplemented with 5% FBS. […] The plates were measured on a PerkinElmer ViewLux plate reader for luminescent signal (clear filter, 1 sec exp). […]
Concentration-response curves were fitted to the signals arising from the resulting luminescence. The concentration-effect curves were then classified based on curve quality (r2), response magnitude and degree of measured activity, and compounds were subsequently categorized based on their curve class.
Consider `CNC1CCc2cc(OC)c(OC)c(OC)c2-c2ccc(SC)c(=O)cc21` (stereo not drawn), for which the Potency was active: 206 nM.
Under `CCOC(=O)NC1CCc2cc(OC)c(OC)c(OC)c2-c2ccc(OC)c(=O)cc21` (stereo not drawn) stands active: 184 nM; under `COc1cc2c(c(OC)c1OC)-c1ccc(OC)c(=O)cc1C(N)CC2` (stereo not drawn), active: 184 nM.

The values above are taken from PubChem BioAssay AID686970 (National Center for Advancing Translational Sciences (NCATS), 2013).
